Reference: publication PMC4884786
Residue numbers refer to the chain shown, from its start. No constants are given. Whether binding was seen depends on the method and setting. Binding seen in cells or lysates may run through a third protein. Some binding calls cover weakened binding; strength is not graded here. For some of these results: Where a sequence is shown, tags or fusion partners need not be part of it.

Chains of the proteins cited; added tags and fusions are not shown.
UniProt Q9UF56: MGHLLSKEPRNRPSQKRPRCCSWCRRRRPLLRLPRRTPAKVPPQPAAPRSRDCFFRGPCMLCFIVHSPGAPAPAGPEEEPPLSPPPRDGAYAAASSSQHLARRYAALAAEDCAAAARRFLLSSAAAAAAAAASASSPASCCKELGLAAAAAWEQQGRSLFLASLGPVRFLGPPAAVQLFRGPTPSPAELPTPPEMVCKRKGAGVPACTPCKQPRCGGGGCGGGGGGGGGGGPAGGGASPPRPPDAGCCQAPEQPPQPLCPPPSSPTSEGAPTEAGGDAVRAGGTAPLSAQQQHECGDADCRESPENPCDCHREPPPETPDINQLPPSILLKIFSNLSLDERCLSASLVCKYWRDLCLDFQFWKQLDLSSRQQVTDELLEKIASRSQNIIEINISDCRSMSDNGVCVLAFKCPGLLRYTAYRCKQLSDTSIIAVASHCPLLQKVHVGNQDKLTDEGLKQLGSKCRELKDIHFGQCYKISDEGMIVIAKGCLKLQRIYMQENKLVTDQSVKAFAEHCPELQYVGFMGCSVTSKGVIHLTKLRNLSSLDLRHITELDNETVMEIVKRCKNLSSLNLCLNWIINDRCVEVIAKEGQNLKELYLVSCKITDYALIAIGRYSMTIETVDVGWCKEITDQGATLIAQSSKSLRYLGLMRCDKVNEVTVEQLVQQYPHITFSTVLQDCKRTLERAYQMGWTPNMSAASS
UniProt P08151: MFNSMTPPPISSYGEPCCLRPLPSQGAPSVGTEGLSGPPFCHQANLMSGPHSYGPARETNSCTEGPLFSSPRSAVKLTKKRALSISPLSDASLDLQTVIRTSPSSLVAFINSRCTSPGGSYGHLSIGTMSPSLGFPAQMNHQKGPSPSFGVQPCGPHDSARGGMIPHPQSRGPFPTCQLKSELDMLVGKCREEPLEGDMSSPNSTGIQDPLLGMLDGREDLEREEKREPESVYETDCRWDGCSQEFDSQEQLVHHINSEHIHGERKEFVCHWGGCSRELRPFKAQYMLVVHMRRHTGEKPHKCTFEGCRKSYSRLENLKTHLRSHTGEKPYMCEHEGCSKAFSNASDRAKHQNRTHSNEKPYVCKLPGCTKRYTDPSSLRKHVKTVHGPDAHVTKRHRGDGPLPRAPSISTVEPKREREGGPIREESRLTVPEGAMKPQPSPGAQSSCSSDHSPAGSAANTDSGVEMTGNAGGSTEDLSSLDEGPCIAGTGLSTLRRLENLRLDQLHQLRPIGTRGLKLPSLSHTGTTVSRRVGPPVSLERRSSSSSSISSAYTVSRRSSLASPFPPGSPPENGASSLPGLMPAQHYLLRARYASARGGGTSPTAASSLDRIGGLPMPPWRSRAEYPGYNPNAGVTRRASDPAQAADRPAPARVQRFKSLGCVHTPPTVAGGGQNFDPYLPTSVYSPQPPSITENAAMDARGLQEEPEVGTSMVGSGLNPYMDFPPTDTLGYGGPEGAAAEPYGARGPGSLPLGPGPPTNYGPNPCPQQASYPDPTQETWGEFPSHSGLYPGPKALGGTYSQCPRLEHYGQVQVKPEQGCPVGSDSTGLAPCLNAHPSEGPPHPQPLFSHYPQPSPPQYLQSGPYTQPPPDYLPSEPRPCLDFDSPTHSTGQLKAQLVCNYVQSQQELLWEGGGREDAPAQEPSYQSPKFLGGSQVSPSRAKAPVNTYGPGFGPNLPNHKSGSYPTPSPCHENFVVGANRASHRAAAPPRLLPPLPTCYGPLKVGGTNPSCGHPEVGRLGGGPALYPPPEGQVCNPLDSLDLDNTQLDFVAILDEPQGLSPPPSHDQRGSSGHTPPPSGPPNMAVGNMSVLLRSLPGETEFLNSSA
UniProt P63208: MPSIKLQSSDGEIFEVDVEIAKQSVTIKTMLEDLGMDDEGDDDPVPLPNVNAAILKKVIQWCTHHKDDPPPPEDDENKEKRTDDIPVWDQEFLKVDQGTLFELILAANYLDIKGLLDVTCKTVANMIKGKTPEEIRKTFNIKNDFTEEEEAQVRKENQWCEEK

Assays:
[1] = target: T1, Sufu (Suppressor of fused), endogenous, human cells (human (endogenous in HEK293T, PC3, DAOY)) (UniProt Q9UMX1); assay: co-IP; endogenous Sufu immunoprecipitated: from PC3 and DAOY cells treated with MLN4924 (2 μM, 5 h), and from HEK293T cells co‐transfected with HA‐ubiquitin, Myc‐Fbxl17 and Flag‐Gli1, with MG132 (10 μM)
T1 sequence: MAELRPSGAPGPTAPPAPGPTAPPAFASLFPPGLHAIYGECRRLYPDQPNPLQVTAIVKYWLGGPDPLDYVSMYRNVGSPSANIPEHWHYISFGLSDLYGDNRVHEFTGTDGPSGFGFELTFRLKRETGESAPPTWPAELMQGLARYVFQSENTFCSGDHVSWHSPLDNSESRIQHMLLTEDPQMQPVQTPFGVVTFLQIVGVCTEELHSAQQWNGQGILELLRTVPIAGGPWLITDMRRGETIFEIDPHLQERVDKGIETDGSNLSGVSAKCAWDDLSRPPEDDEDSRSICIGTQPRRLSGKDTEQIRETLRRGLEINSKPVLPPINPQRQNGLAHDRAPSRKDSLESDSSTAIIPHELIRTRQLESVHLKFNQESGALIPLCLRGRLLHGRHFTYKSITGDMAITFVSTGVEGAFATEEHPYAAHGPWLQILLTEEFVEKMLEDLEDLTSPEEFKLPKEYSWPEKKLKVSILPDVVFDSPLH

[2] = target: T2, HA‐tagged Sufu wild type (WT) (UniProt Q9UMX1); assay: co-IP; HA‐tagged Sufu immunoprecipitated from Ptch1−/− MEFs (200 μg of whole‐cell lysate), with expression of Myc‐tagged Fbxl17 or depletion of Fbxl17 by two siRNAs; Flag‐Gli1 detected
T2 sequence: T1 sequence

[3] = target: T3, Sufu, endogenous, Ptch1−/− mouse embryonic fibroblasts (mouse (endogenous in MEFs)) (UniProt Q9Z0P7); assay: co-IP; endogenous Sufu immunoprecipitated from cytoplasmic and nuclear extracts of Ptch1−/− MEFs expressing HA‐tagged Fbxl17
T3 sequence: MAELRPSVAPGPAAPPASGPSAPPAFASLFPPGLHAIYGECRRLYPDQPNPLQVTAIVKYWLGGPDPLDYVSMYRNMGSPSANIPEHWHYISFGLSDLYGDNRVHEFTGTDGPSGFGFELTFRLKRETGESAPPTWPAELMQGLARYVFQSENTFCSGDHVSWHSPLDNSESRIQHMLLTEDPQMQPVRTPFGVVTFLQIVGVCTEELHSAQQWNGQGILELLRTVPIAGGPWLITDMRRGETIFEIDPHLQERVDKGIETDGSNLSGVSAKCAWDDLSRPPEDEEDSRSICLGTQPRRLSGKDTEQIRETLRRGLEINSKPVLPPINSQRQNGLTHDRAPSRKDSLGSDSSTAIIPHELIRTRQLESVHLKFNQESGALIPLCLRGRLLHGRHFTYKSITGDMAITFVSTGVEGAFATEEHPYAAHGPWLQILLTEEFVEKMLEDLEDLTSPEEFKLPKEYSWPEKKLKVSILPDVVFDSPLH

[4] = target: T4, HA‐tagged Sufu deletion construct 350–425 (UniProt Q9UMX1); assay: co-IP; HA‐Sufu (wild type, truncated fragments, point mutants) immunoprecipitated from HEK293T cells co‐transfected with Myc‐tagged Fbxl17, treated with MLN4924 (2 μM, 5 h); Myc‐Fbxl17 detected
T4 sequence: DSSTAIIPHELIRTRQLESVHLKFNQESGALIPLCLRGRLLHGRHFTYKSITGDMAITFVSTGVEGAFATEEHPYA

[5] = target: T5, HA‐tagged Sufu S352D (UniProt Q9UMX1); assay: as above
T5 sequence: T1 sequence with S352D

[6] = target: T6, HA‐Sufu 350–484‐truncated mutant (UniProt Q9UMX1); assay: as above
T6 sequence: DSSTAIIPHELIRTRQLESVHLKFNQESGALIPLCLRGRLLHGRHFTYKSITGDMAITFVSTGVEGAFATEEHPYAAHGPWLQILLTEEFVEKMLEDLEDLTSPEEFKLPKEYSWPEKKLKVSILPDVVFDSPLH

[7] = target: T7, HA‐tagged Sufu S342/6A (UniProt Q9UMX1); assay: as above
T7 sequence: T1 sequence with S342A, S346A

[8] = target: T2, HA‐tagged Sufu wild type (WT); assay: as above
[9] = target: T8, HA‐tagged Sufu S342/6D (UniProt Q9UMX1); assay: as above
T8 sequence: T1 sequence with S342D, S346D

[10] = target: T9, HA‐tagged Sufu S352F (UniProt Q9UMX1); assay: as above
T9 sequence: T1 sequence with S352F

[11] = target: T10, Sufu 340–360 [S352P/T353P] peptide; assay: pull-down; Sufu peptides conjugated to CNBr‐activated Sepharose, incubated with lysates of HEK293T cells transfected with Myc‐tagged Fbxl17; only the target purified
T10 sequence (peptide, phosphorylated on the residues S352 and T353): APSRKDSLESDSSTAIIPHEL

[12] = target: T11, Sufu 340–360 peptide; assay: as above
T11 sequence (peptide): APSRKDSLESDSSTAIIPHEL

[13] = target: T12, Sufu 351–372 peptide; assay: as above
T12 sequence (peptide): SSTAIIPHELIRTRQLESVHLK

[14] = target: T13, HA‐tagged Sufu full‐length, synthesized in vitro (UniProt Q9UMX1); assay: pull-down; in vitro synthesized HA‐tagged Sufu full length bound to Protein G–Sepharose beads (positive control), incubated with lysates of HEK293T cells transfected with Myc‐tagged Fbxl17
T13 sequence: T1 sequence

[15] = target: 3×Flag‐tagged Fbxl17 (F‐box and leucine‐rich repeat protein 17) (human) (UniProt Q9UF56); assay: co-IP; Flag‐tagged F‐box proteins immunoprecipitated from HEK293T cells treated with MLN4924 (2 μM, 5 h); endogenous Sufu and Skp1 detected

Fbxl17, endogenous (from UniProt Q9UF56 1-701)
binding [1]: binds

Flag‐tagged Gli1 (Glioma‐associated oncogene homolog 1) (from UniProt P08151 1-1106)
binding [2]: binds

HA‐tagged Fbxl17 (from UniProt Q9UF56 1-701)
binding [3]: binds

Myc‐tagged Fbxl17 (from UniProt Q9UF56 1-701)
binding [1]: binds | binding [4]: binds | binding [5]: binds | binding [6]: binds | binding [7]: binds | binding [8]: binds | binding [9]: binds | binding [10]: binds | binding [11]: no binding | binding [12]: no binding | binding [13]: no binding | binding [14]: binds

Skp1 (S‐phase kinase‐associated protein 1) (from UniProt P63208 1-163)
binding [15]: binds
